A short description of data set [1]: Turbidity on adding selegiline-HCl and a deprotonating agent to water. In kind it is physicochemical. The note with it: selegiline-HCl plus deprotonating agent in water, visual.
Data set [2] is classed as physicochemical. The note with it: propylene glycol as test medium, compared with stoichiometric value.

The text below walks through data of US7638140B2, “Adhesive mixture for transdermal delivery of highly plasticizing drugs” (priority 1997, dated 2009).

Like-named read-outs stand apart in the source and are kept apart here.

In the case of `NCCO` [Ethanolamine], in data set [1], the TURBIDITY entry is reported as “Yes”.
Consider `Nc1ccccc1` [Aniline], for which the “Selegiline Free Base Conversion” value in data set [2] is listed as “no conversion”; in data set [2] (listed as Amiline), 0%. Also, the TURBIDITY result in data set [1] was “No”; in data set [1] (listed as aniline) it was “no turbidity”.
